Test results published in publication PMC9249222.
These are yes or no findings as the source states them, for the method shown. Some results given as binding are weak or reduced against the parent protein; the word gives no strength. Blank lines part the entries; values can stand above or below the substance they belong to.

Chains of the proteins cited; added tags and fusions are not shown. Lines headed by an entry give the natural chain unless they say otherwise; changes in a name come on top.
UniProt A0A0D1DWZ5: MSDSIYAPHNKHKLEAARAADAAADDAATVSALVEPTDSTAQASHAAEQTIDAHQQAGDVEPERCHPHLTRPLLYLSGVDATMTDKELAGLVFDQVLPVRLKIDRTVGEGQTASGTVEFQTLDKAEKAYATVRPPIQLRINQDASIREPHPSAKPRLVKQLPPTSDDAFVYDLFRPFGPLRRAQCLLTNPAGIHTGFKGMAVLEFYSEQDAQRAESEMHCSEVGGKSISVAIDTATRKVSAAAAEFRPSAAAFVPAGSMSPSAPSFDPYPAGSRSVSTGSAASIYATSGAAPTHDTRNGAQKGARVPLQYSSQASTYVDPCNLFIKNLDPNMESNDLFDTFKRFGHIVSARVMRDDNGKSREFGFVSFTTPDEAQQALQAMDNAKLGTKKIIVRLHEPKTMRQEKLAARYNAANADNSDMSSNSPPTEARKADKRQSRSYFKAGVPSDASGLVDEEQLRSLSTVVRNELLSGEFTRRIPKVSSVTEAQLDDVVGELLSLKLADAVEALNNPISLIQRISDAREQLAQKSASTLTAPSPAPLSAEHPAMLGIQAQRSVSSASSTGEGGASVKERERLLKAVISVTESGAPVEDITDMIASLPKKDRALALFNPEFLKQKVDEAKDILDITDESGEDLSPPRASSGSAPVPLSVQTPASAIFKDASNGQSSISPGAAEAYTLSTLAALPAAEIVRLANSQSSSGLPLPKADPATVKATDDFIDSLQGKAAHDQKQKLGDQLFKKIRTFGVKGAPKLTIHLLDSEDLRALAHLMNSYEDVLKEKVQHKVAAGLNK

Tests used:
G-Rrm4 (Ustilago maydis) = assay: SAXS; 0.6 mg/ml protein, 10°C, buffer E (20 mM HEPES pH 8.0, 200 mM NaCl, 1 mM β-ME); both purified
[1] = target: H-Rrm4-NT4 (Ustilago maydis); assay: as above
[2] = target: Upa1-Gfp (Gal4 DNA-binding domain fusion) (Ustilago maydis); assay: two-hybrid; Matchmaker 3, S. cerevisiae AH109; Upa1 versions fused to the Gal4p DNA-binding domain, Rrm4 versions to the activation domain; growth on SD without leucine, tryptophan, histidine and adenine, 28°C, 2 days

binding (G-Rrm4 (Ustilago maydis)): no binding (tested: 0.6 mg/ml)
Substance: G-Rrm4 (from UniProt A0A0D1DWZ5 1-792)

binding [1]: no binding (tested: 0.6 mg/ml)
Substance: H-Rrm4-NT4 (from UniProt A0A0D1DWZ5 421-792) (domain or fragment)

binding [2]: binds
Substance: Rrm4-Kat (Gal4 activation domain fusion) (from UniProt A0A0D1DWZ5 1-792)
